# Source: PubChem BioAssay AID1259415 (National Center for Advancing Translational Sciences (NCATS), 2018)
# About 18,000 (4.4%) of roughly 410,000 compounds were called active. Inconclusive means that the source gave no clear call. Such entries were picked first, then a sample of the others. Rule as the data show it: active = activity change below about -60%; inconclusive = no clear call, values can overlap the other calls; inactive = above about -39%.
# Experiment: qHTS Assay for inhibitors of the human cytomegalovirus (HCMV)
# Details: HFF cells, HCMV-luciferase reporter, 72 h; at 57.5 µM; stronger effect = lower value
# Procedure, shortened: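 Two compound doses tested in HFFs infected with HCMV-luciferase, MOI 1 PFU/cell, 72 h at 37C. Lysate luminescence read with OneGlo; data normalized against buffer-only and 10uM Salinomycin inhibitor controls.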
# % is scaled to controls: 0 for no effect and ±100 for the full control effect.
row,SMILES,"activity change, negative = inhibition"
1,Cc1ccc2c(c1)[C@H]1[C@H](CO2)[C@H](c2ccccc2)[C@]2(C)C(=O)Nc3ccc(Br)cc3C(=O)N12,inconclusive: -46.1%
2,Cc1ccc(CN(C(=O)c2sc3ccccc3c2Cl)C2CCS(=O)(=O)C2)cc1 (stereo not given),inconclusive: -46.1%
3,CN(C)CCn1cnc2c(c1=N)C(c1ccccc1)c1ccc3ccccc3c1O2 (stereo not given),active: -97.7%
4,COc1cc2c(cc1OC)C(Cc1ccc(O)cc1)NCC2 (stereo not given),active: -78.5%
5,Clc1ccc(-c2nnc3c4ccccc4nc(N4CCOCC4)n23)cc1Cl,active: -89.7%
6,O=[N+]([O-])c1ccc(C2=CSC3=NCCN23)cc1,inactive: -23.5%
7,COc1ccc(C(=O)Nc2nnc(SCc3cc(=O)c4cccc(F)c4[nH]3)s2)cc1,inactive: 20.7%
8,COc1ccc(NC(=O)N2CCCCCC2)cc1OC,inconclusive: -48.2%
9,C=C(C)COc1ccc(-c2nc(N)ncc2-c2ccc(Cl)cc2)c(O)c1,inactive: -25%
10,Cc1ccc(-c2[nH]ncc2/C=N/n2c(C)nc3ccccc3c2=O)cc1,inactive: -8.06%
11,COC(=O)C1=C(c2ccc(F)cc2OCc2ccccc2)C[C@@H]2CC[C@H]1N2C(=O)NC1CC1,inactive: -32.8%
12,CCCN(C(=O)Cc1nc(-c2ccc(OC)cc2)no1)c1ccccc1C,inactive: -6.2%
13,CCC(C)NC(=O)Cn1c(=O)n(CCCCCC(=O)Nc2ccccc2)c(=O)c2sccc21 (stereo not given),inconclusive: -50%
14,Cc1c(C(=O)N2CCCc3ccccc32)oc2ccc(S(=O)(=O)N3CCOCC3)cc12,inconclusive: -48.9%
15,O=C(O)c1cc([N+](=O)[O-])c(Sc2nc3ccccc3[nH]2)c([N+](=O)[O-])c1,inactive: 81.7%
16,COc1cc(/C=C2\SC(c3ccc(C)cc3)=NC2=O)cc(OC)c1O,active: -75.3%
17,Cc1c(/C=C2\SC(=O)N(CC(=O)Nc3ccc4c(c3)OCO4)C2=O)c2ccccc2n1C,inconclusive: -50.1%
18,CCOc1ccc(NCc2cccn2-c2nnc(N3CCC(C(=O)NCCCN4CCCCC4CC)CC3)s2)cc1 (stereo not given),inconclusive: -48.8%
19,Cc1ccc(-c2nnc(Nc3ccc(Br)cc3)c3ccccc23)cc1S(=O)(=O)NCC1CCCO1 (stereo not given),inactive: -24.9%
20,CCc1cc(-c2n[nH]c(C)c2-c2nc3ccccc3n2C)c(O)cc1O,active: -71.4%
21,COC(=O)Nc1nc(-c2ccccc2)c(C(=O)c2ccccc2)s1,inconclusive: -57.3%
22,O=C(NCC1CCOCC1)c1cc(COc2ccc(F)cc2F)on1,inconclusive: -44.6%
23,CC(C)NC(=O)c1cc2n(n1)C(C(F)(F)F)CC(c1ccco1)N2 (stereo not given),inactive: 10.3%
24,CC(C)NC(=O)COc1ccc(OCc2ccccc2)cc1,inconclusive: -51.1%
25,CC12CC(NC(=O)N1c1cccc(C(=O)NCc3ccccc3)c1)c1ccccc1O2 (stereo not given),inconclusive: -41.2%
26,CC1(C)COC(c2cccc(C3=NC(C)(C)CO3)n2)=N1,inconclusive: -40%
27,COc1cc(CCC(=O)NC2(C)CCS(=O)(=O)C2)cc(OC)c1OC (stereo not given),inconclusive: -45.1%
28,COc1ccc(NC(=O)CN2C(=O)C(C)(C)c3ccccc32)cc1Cl,inconclusive: -46.2%

# Quoted from the listing.
# activity change, negative = inhibition with `COc1ccc(C(=O)Nc2nnc(SCc3cc(=O)c4cccc(F)c4[nH]3)s2)cc1` is entered as inactive: 20.7%
# activity change, negative = inhibition with `COC(=O)C1=C(c2ccc(F)cc2OCc2ccccc2)C[C@@H]2CC[C@H]1N2C(=O)NC1CC1` is entered as inactive: -32.8%

# Next part

row,SMILES,"activity change, negative = inhibition"
1,CCOCCCn1c(C)nc2c(c1=O)c1nc3ccccc3nc1n2CCC1=CCCCC1,inconclusive: -49.1%
2,CC(Sc1nc2ccccc2s1)C(=O)NC1CCCc2ccccc21 (stereo not given),inconclusive: -45.1%
3,CCOC(=O)c1c(-c2ccccc2)csc1NC(=O)CSc1nnc(C)s1,inconclusive: -54.4%
4,CCOC(=O)CSc1n[nH]c(NC(=O)NC(C)C)n1,inactive: -23.9%
5,CCCC(=O)NC(NC(=S)Nc1ccc(N=Nc2ccccc2)cc1)C(Cl)(Cl)Cl (stereo not given),active: -70.1%
6,Cc1cccc(C(=O)Nc2nnc(S(=O)(=O)N(C)Cc3ccc(Cl)cc3)s2)c1,inconclusive: 0%
7,Cc1ccc(C(=O)CCS(=O)(=O)c2ccc(F)cc2)cc1,active: -98.9%
8,O=C(CSCC(=O)Nc1nccs1)Nc1ccccc1,inconclusive: -50.6%
9,CCc1nn(CC(=O)NCC(C)c2ccccc2)c(=O)c2cc3occc3n12 (stereo not given),inactive: -13.6%
10,Cc1cc2nc(/C(C#N)=C/c3ccncc3)[nH]c2cc1C,inconclusive: -42.8%
11,CCC(=O)NC(c1ccco1)c1cc(Br)c2cccnc2c1O (stereo not given),inconclusive: -58.2%
12,Cc1ccc(-n2nnc3c(=O)n(Cc4ccccc4C)cnc32)cc1,inactive: 4.65%
13,C=CCOc1ccccc1CN1CCC(Oc2ccc(C(=O)N3CCCC3)cc2)CC1,inconclusive: -49.4%
14,COc1ccc(-c2csc(Nc3ccc(Oc4ccccc4)cc3)n2)cc1,active: -64.7%
15,Clc1ccccc1CNc1ncnc2c1nc1n2CCCC1,inconclusive: -53.2%
16,CN1CCN(CCCNC(=O)c2ccc(Cn3c(=S)[nH]c4ccc(Br)cc4c3=O)cc2)CC1,inactive: 18.6%
17,Cc1ccc(S(=O)(=O)N2CCCCC2)cc1C(=O)N1C(C)CCCC1C (stereo not given),inactive: -20%
18,COc1ccccc1-c1cccc([C@@H]2C[C@H]3[C@H](CON3C)CN2Cc2ccccc2)c1,inactive: -8.42%
19,O=c1c2ccccc2nc(CSc2nnnn2-c2ccccc2)n1-c1ccccc1Cl,inconclusive: -45.5%
20,COc1cccc(CNc2ccc(F)c([N+](=O)[O-])c2)c1O,inconclusive: -57.5%
21,O=C(CSc1nc(=O)n(CCN2CCOCC2)c2c1CCC2)Nc1ccc(OC(F)(F)F)cc1,active: -60%
22,CCN1CCN(C2=C(NS(=O)(=O)c3ccc(Br)cc3)C(=O)c3ccccc3C2=O)CC1,active: -112%
23,CCCOc1cc(N(CC)CC)ccc1/C=C(/C#N)c1nc2ccc(C)cc2[nH]1,inconclusive: -43%
24,CC(=O)C1=NOC(CNc2ncc(C(F)(F)F)cc2Cl)C1 (stereo not given),inactive: -20.2%
25,CCN1CCN(c2cc(C)c3cc(NC(=S)N(C)Cc4ccccc4)ccc3n2)CC1,inconclusive: -50.4%
26,Cc1ccc(C(=O)NCC(c2ccc3c(c2)OCO3)N2CCN(c3ccc(F)cc3)CC2)cc1 (stereo not given),inactive: 12.2%
27,O=C(Nc1cccc2[nH]c([C@H]3C[C@H](O)[C@@H](CO)O3)nc12)NC(c1ccccc1)c1ccccc1,inconclusive: -54.7%

# Exported with bars between the fields: 2 of the compounds above
row | SMILES | activity change, negative = inhibition
18 | COc1ccccc1-c1cccc([C@@H]2C[C@H]3[C@H](CON3C)CN2Cc2ccccc2)c1 | inactive: -8.42%
19 | O=c1c2ccccc2nc(CSc2nnnn2-c2ccccc2)n1-c1ccccc1Cl | inconclusive: -45.5%
